Data as given in publication PMC10238178.
Results are given in words; binding and its absence hold for the method and conditions named. In cells and extracts the contact can be indirect. A yes stands for co-enrichment or nearness to the bait. Other partners may have been found. One block for each binder: values may come before it.

Target: Flag-β-TrCP
Assay: affinity purification with mass spectrometry; Flag-β-TrCP or empty vector transfected into HEK293T; MG132 20 µM 6 h; lysate on anti-Flag M2 affinity gel at 4 °C overnight; silver-stained gel bands to LC-MS/MS

binding: binds
B1: VCPIP1 (endogenous, HEK293T) (enzyme, UniProt Q96JH7 1-1222)
chain: MSQPPPPPPPLPPPPPPPEAPQTPSSLASAAASGGLLKRRDRRILSGSCPDPKCQARLFFPASGSVSIECTECGQRHEQQQLLGVEEVTDPDVVLHNLLRNALLGVTGAPKKNTELVKVMGLSNYHCKLLSPILARYGMDKQTGRAKLLRDMNQGELFDCALLGDRAFLIEPEHVNTVGYGKDRSGSLLYLHDTLEDIKRANKSQECLIPVHVDGDGHCLVHAVSRALVGRELFWHALRENLKQHFQQHLARYQALFHDFIDAAEWEDIINECDPLFVPPEGVPLGLRNIHIFGLANVLHRPIILLDSLSGMRSSGDYSATFLPGLIPAEKCTGKDGHLNKPICIAWSSSGRNHYIPLVGIKGAALPKLPMNLLPKAWGVPQDLIKKYIKLEEDGGCVIGGDRSLQDKYLLRLVAAMEEVFMDKHGIHPSLVADVHQYFYRRTGVIGVQPEEVTAAAKKAVMDNRLHKCLLCGALSELHVPPEWLAPGGKLYNLAKSTHGQLRTDKNYSFPLNNLVCSYDSVKDVLVPDYGMSNLTACNWCHGTSVRKVRGDGSIVYLDGDRTNSRSTGGKCGCGFKHFWDGKEYDNLPEAFPITLEWGGRVVRETVYWFQYESDSSLNSNVYDVAMKLVTKHFPGEFGSEILVQKVVHTILHQTAKKNPDDYTPVNIDGAHAQRVGDVQGQESESQLPTKIILTGQKTKTLHKEELNMSKTERTIQQNITEQASVMQKRKTEKLKQEQKGQPRTVSPSTIRDGPSSAPATPTKAPYSPTTSKEKKIRITTNDGRQSMVTLKSSTTFFELQESIAREFNIPPYLQCIRYGFPPKELMPPQAGMEKEPVPLQHGDRITIEILKSKAEGGQSAAAHSAHTVKQEDIAVTGKLSSKELQEQAEKEMYSLCLLATLMGEDVWSYAKGLPHMFQQGGVFYSIMKKTMGMADGKHCTFPHLPGKTFVYNASEDRLELCVDAAGHFPIGPDVEDLVKEAVSQVRAEATTRSRESSPSHGLLKLGSGGVVKKKSEQLHNVTAFQGKGHSLGTASGNPHLDPRARETSVVRKHNTGTDFSNSSTKTEPSVFTASSSNSELIRIAPGVVTMRDGRQLDPDLVEAQRKKLQEMVSSIQASMDRHLRDQSTEQSPSDLPQRKTEVVSSSAKSGSLQTGLPESFPLTGGTENLNTETTDGCVADALGAAFATRSKAQRGNSVEELEEMDSQDAEMTNTTEPMDHS

binding: binds
B2: USP15 (endogenous, HEK293T) (enzyme, UniProt Q9Y4E8 1-981)
chain: MAEGGAADLDTQRSDIATLLKTSLRKGDTWYLVDSRWFKQWKKYVGFDSWDKYQMGDQNVYPGPIDNSGLLKDGDAQSLKEHLIDELDYILLPTEGWNKLVSWYTLMEGQEPIARKVVEQGMFVKHCKVEVYLTELKLCENGNMNNVVTRRFSKADTIDTIEKEIRKIFSIPDEKETRLWNKYMSNTFEPLNKPDSTIQDAGLYQGQVLVIEQKNEDGTWPRGPSTPKSPGASNFSTLPKISPSSLSNNYNNMNNRNVKNSNYCLPSYTAYKNYDYSEPGRNNEQPGLCGLSNLGNTCFMNSAIQCLSNTPPLTEYFLNDKYQEELNFDNPLGMRGEIAKSYAELIKQMWSGKFSYVTPRAFKTQVGRFAPQFSGYQQQDCQELLAFLLDGLHEDLNRIRKKPYIQLKDADGRPDKVVAEEAWENHLKRNDSIIVDIFHGLFKSTLVCPECAKISVTFDPFCYLTLPLPMKKERTLEVYLVRMDPLTKPMQYKVVVPKIGNILDLCTALSALSGIPADKMIVTDIYNHRFHRIFAMDENLSSIMERDDIYVFEININRTEDTEHVIIPVCLREKFRHSSYTHHTGSSLFGQPFLMAVPRNNTEDKLYNLLLLRMCRYVKISTETEETEGSLHCCKDQNINGNGPNGIHEEGSPSEMETDEPDDESSQDQELPSENENSQSEDSVGGDNDSENGLCTEDTCKGQLTGHKKRLFTFQFNNLGNTDINYIKDDTRHIRFDDRQLRLDERSFLALDWDPDLKKRYFDENAAEDFEKHESVEYKPPKKPFVKLKDCIELFTTKEKLGAEDPWYCPNCKEHQQATKKLDLWSLPPVLVVHLKRFSYSRYMRDKLDTLVDFPINDLDMSEFLINPNAGPCRYNLIAVSNHYGGMGGGHYTAFAKNKDDGKWYYFDDSSVSTASEDQIVSKAAYVLFYQRQDTFSGTGFFPLDRETKGASAATGIPLESDEDSNDNDNDIENENCMHTN

binding: binds
B3: USP47 (endogenous, HEK293T) (enzyme, UniProt Q96K76 1-1375)
chain: MVPGEENQLVPKEDVFWRCRQNIFDEMKKKFLQIENAAEEPRVLCIIQDTTNSKTVNERITLNLPASTPVRKLFEDVANKVGYINGTFDLVWGNGINTADMAPLDHTSDKSLLDANFEPGKKNFLHLTDKDGEQPQILLEDSSAGEDSVHDRFIGPLPREGSGGSTSDYVSQSYSYSSILNKSETGYVGLVNQAMTCYLNSLLQTLFMTPEFRNALYKWEFEESEEDPVTSIPYQLQRLFVLLQTSKKRAIETTDVTRSFGWDSSEAWQQHDVQELCRVMFDALEQKWKQTEQADLINELYQGKLKDYVRCLECGYEGWRIDTYLDIPLVIRPYGSSQAFASVEEALHAFIQPEILDGPNQYFCERCKKKCDARKGLRFLHFPYLLTLQLKRFDFDYTTMHRIKLNDRMTFPEELDMSTFIDVEDEKSPQTESCTDSGAENEGSCHSDQMSNDFSNDDGVDEGICLETNSGTEKISKSGLEKNSLIYELFSVMVHSGSAAGGHYYACIKSFSDEQWYSFNDQHVSRITQEDIKKTHGGSSGSRGYYSSAFASSTNAYMLIYRLKDPARNAKFLEVDEYPEHIKNLVQKERELEEQEKRQREIERNTCKIKLFCLHPTKQVMMENKLEVHKDKTLKEAVEMAYKMMDLEEVIPLDCCRLVKYDEFHDYLERSYEGEEDTPMGLLLGGVKSTYMFDLLLETRKPDQVFQSYKPGEVMVKVHVVDLKAESVAAPITVRAYLNQTVTEFKQLISKAIHLPAETMRIVLERCYNDLRLLSVSSKTLKAEGFFRSNKVFVESSETLDYQMAFADSHLWKLLDRHANTIRLFVLLPEQSPVSYSKRTAYQKAGGDSGNVDDDCERVKGPVGSLKSVEAILEESTEKLKSLSLQQQQDGDNGDSSKSTETSDFENIESPLNERDSSASVDNRELEQHIQTSDPENFQSEERSDSDVNNDRSTSSVDSDILSSSHSSDTLCNADNAQIPLANGLDSHSITSSRRTKANEGKKETWDTAEEDSGTDSEYDESGKSRGEMQYMYFKAEPYAADEGSGEGHKWLMVHVDKRITLAAFKQHLEPFVGVLSSHFKVFRVYASNQEFESVRLNETLSSFSDDNKITIRLGRALKKGEYRVKVYQLLVNEQEPCKFLLDAVFAKGMTVRQSKEELIPQLREQCGLELSIDRFRLRKKTWKNPGTVFLDYHIYEEDINISSNWEVFLEVLDGVEKMKSMSQLAVLSRRWKPSEMKLDPFQEVVLESSSVDELREKLSEISGIPLDDIEFAKGRGTFPCDISVLDIHQDLDWNPKVSTLNVWPLYICDDGAVIFYRDKTEELMELTDEQRNELMKKESSRLQKTGHRVTYSPRKEKALKIYLDGAPNKDLTQD
